## Library screen at single concentrations

By UniProt entry, the sequences of proteins in these tests, tags left out.
UniProt P9WFT3, whole entry: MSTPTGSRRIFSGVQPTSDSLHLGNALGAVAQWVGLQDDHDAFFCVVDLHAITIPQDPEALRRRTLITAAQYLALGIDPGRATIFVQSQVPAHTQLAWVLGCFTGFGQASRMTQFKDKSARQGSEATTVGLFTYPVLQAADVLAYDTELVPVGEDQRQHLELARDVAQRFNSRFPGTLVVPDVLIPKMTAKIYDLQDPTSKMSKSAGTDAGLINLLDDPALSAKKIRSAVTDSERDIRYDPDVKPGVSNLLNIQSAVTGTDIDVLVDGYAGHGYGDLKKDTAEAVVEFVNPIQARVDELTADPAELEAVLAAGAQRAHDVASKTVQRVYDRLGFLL
UniProt P9WPC5, whole entry: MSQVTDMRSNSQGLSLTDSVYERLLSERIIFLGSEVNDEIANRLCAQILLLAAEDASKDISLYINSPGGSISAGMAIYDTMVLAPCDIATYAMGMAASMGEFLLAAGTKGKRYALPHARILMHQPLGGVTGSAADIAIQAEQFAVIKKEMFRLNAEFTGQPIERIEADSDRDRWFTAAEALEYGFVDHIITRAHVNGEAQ
UniProt P9WPC3, whole entry partner: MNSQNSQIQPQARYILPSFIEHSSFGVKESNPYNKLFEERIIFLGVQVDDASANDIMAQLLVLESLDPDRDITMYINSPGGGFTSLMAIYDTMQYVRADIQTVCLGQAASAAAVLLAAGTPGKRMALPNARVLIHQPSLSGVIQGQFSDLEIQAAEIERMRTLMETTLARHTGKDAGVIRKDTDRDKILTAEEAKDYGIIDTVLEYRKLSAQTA

From ChEMBL document CHEMBL3988442, “University of Dundee, Small-Polar-MMV Screening Library” (2021).

A: 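Tryptophan-tRNA ligase, Mycobacterium tuberculosis (UniProt P9WFT3). Enzyme assay of tryptophanyl-tRNA synthetase; the read-out is not stated. Compounds at 10 µM. Direction is not recorded; retested compounds ran higher, which suggests that high means inhibition. Size under these conditions: about 65,000 compounds, about 64 of them at 50% or above in at least one test.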
B: 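Protease assay of ClpP1P2, read by the AMC dye that it sets free. Target: ClpP1P2, Mycobacterium tuberculosis (UniProt P9WPC5 and UniProt P9WPC3). Tested at 50 µM. Higher reads as stronger inhibition, judged from the few compounds that gave an IC50. Most other retested compounds had strongly negative values. Of about 69,000 compounds tested this way, about 10 (0.015%) reached 50% or more in at least one test.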

The filed quantity is “Percent Effect” (%). How 0% and 100% were set is not recorded. Most values in the screen are low, and negative values occur. This is an unselected part of the compounds tested.

* Cc1ccc(CNC(=O)CN(C)CC2CCN(CCO)CC2)s1 : A: -3.974%; B: -17.58%
* Cc1nc(CN2CCOC(CNc3cccnn3)C2)oc1C (stereo not drawn) : A: -6.808%; B: -0.372%
* Cc1[nH]ccc1C(=O)N1C[C@H]2CC[C@@H]1CN(S(=O)(=O)N(C)C)C2 : A: -1.49%; B: -5.797%
* CN1Cc2ccccc2CC2(CCN(C(=O)[C@H]3CCCO3)CC2)C1=O : A: -0.5724%; B: 2.075%
* Cc1noc(C)c1CNC(=O)c1ccc(NC2CC2)nc1 : A: -1.072%; B: 5.284%
* Cc1nc(CCCNC(=O)c2coc(CN3CCOCC3)c2)sc1C : A: 2.093%; B: 1.328%
* COc1ccccc1C(=O)N1CC(=O)N(CC(C)C)CC(O)C1 (stereo not drawn) : B: 10.17%
* CC(O)CN1CCC(CN(C)Cc2cc(F)cc3cccnc23)CC1 (stereo not drawn) : A: 3.757%; B: 12.53%
* Cc1nc(Cn2cc(I)cc(C)c2=O)oc1C : A: -0.0748%; B: 0.4088%
* O=C(NCCc1cc2nc(-c3ccncc3)ccn2n1)C1CC1 : A: -1.451%; B: -3.992%
* NC(=O)c1cnc2n1CCN(C(=O)c1ccc(Cn3cccc3)cc1)C2 : A: -2.529%; B: 30.92%
* N#CCCSc1nnc(Cc2ccccc2F)o1 : A: 2.888%; B: 0.2914%
* CC(C)(NS(C)(=O)=O)C(=O)NCc1cccc(Br)c1 : A: 1.737%; B: -1.581%
* CCN(CC)c1ccc(C(=O)NCC2(C(N)=O)CCOCC2)cn1 : A: 2.233%; B: -2.703%
* c1cncc(CN2CCO[C@@H]3CN(Cc4ccoc4)CC[C@@H]3C2)c1 : A: -4.856%; B: -11.64%
* Cc1cnn(C2CN(Cc3nc(-c4ccco4)no3)C2)c1 : A: 5.516%; B: -3.211%
* C1CC(CO[C@@H]2CC[C@H]3[C@H]2OCCN3CC2CCOCC2)CCO1 : A: 5.398%; B: -1.923%
* c1csc(CN2CCOCC3(CCN(C4CCOCC4)C3)C2)n1 (stereo not drawn) : A: 3.931%; B: 3.528%
* CNc1nc2c(s1)C(c1cccc(F)c1F)CC(=O)N2 (stereo not drawn) : A: -2.648%; B: -103.7%
* COc1ccc(NC(=O)CCn2nc(-c3cccs3)oc2=O)cc1OC : A: -9.758%; B: -32.81%
* O=S(=O)(Nc1ccon1)c1cc(Cl)cc2c1OCC2 : A: -2.319%; B: -1.638%
* c1cc(C2CCN(c3cnccn3)CC2)ncn1 : A: -4.148%; B: -32.5%
* O=C(NCC1CCC1)c1cccc(CN2CCS(=O)(=O)CC2)c1 : A: 0.7776%; B: -0.09655%
* Cc1cccc(COC2COC3(CCN(Cc4ccoc4)CC3)C2)n1 (stereo not drawn) : A: -0.2766%; B: -13.84%
* CN1CCC(Cc2nc(-c3ccnn3C)n(Cc3ccccc3)n2)CC1 : A: 1.511%; B: 14.03%
* COC(=O)CC1CCCCN1CC(=O)NCCc1ccc(F)cc1 (stereo not drawn) : A: 2.271%; B: -11.79%
* CN(CCc1ccccn1)CCc1nccs1 : A: 1.162%; B: -0.154%
* CC[C@H](C)[C@@H](CO)NC(C)Cc1ccccc1F (stereo partly drawn) : A: 6.755%; B: -7.117%
* CCCn1cc(C(=O)NC2CCN(CC(=O)NC3CC3)CC2)c(C)n1 : A: 2.971%; B: -13.72%
* O=C(CCn1c(=O)oc2ccccc21)NCC(O)c1ccc(F)c(F)c1 (stereo not drawn) : A: -1.23%; B: 2.186%
* Cn1cc(C(=O)Nc2ccc(CN3CCOCC3)cn2)cn1 : A: -4.283%; B: -6.14%
* O=C1NCCCCC1Sc1nnc(-c2cccnc2)n1C1CC1 (stereo not drawn) : A: -4.348%; B: 5.83%
* CCn1cc2c(n1)CN(Cc1ccncc1)CC2COCC1CC1 (stereo not drawn) : A: 2.643%; B: 5.209%
* c1cncc(C(Cn2cnnc2)N2CCOCC2)c1 (stereo not drawn) : A: -1.149%; B: -0.4426%
* Cc1nn(C)c(Cl)c1CN1CCN(c2nccs2)C(C)C1 (stereo not drawn) : A: -4.272%; B: -8.494%
* CN(C)CCCNC(=O)c1nnsc1-c1ccccc1 : A: 2.673%; B: -14.4%
* Cn1cc(C(=O)NCC2CCN(C(=O)NC3CCCCC3)CC2)cn1 : A: 0.8992%; B: -1.586%
* CN(CC(=O)N1CCCC1c1cnn(C)c1)c1ccc(Cl)cn1 (stereo not drawn) : A: -5.166%; B: -5.068%
* CC(C)NC(=O)CC1COC2(CCN(Cc3ccco3)CC2)C1 (stereo not drawn) : A: -0.995%; B: 18.25%
* Cc1ccccc1Cc1cnc(NC(=O)C2CNC(=O)N2)s1 (stereo not drawn) : A: 1.657%; B: 7.743%
* Cn1c(NCC(O)c2ccc(F)c(F)c2)c(C#N)c(=O)n(C)c1=O (stereo not drawn) : A: -7.221%; B: -7.312%
* O=C(COCC1CC1)Nc1ccn(Cc2cccc3cccnc23)n1 : A: -7.897%; B: 0.5946%
* CN(Cc1cc2n(n1)CCCNC2)Cc1cc(-c2ccncc2)no1 : A: -1.917%; B: 9.69%
* Cn1cc(NC(=O)NCc2ccoc2)ccc1=O : A: 5.676%; B: 4.523%
* CN1C(=O)CC[C@@H]2N(C(=O)CCc3cccnc3)CCCC[C@@]21C : A: 2.044%; B: -2.876%

5 of the entries, repeated:

| compound | A | B |
|---|---|---|
| `CCCn1cc(C(=O)NC2CCN(CC(=O)NC3CC3)CC2)c(C)n1` | 2.971 | -13.72 |
| `COC(=O)CC1CCCCN1CC(=O)NCCc1ccc(F)cc1` (stereo not drawn) | 2.271 | -11.79 |
| `Cc1cccc(COC2COC3(CCN(Cc4ccoc4)CC3)C2)n1` (stereo not drawn) | -0.2766 | -13.84 |
| `c1cncc(CN2CCO[C@@H]3CN(Cc4ccoc4)CC[C@@H]3C2)c1` | -4.856 | -11.64 |
| `Cc1nn(C)c(Cl)c1CN1CCN(c2nccs2)C(C)C1` (stereo not drawn) | -4.272 | -8.494 |